PubChem BioAssay AID1224830, NIAID, 2016
Here is one part, drawn at random, of about 18,000 reagents. Of all reagents, about 2,900 (16%) were called active. 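Calls are made per well; low scores hint the gene aids the LPS response, high scores that it dampens it.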 Repeated entries: four replicate wells of each siRNA pool.

Purpose: 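Regulators of TLR4 signalling towards TNF-alpha in macrophage-like cells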 (primary screen)
Cells: human THP-1 monocytic leukaemia cells, TNF dual-luciferase reporter clone, PMA-differentiated to macrophage-like cells
Reagents: siRNA pool against human genes, 50 nM
Duration: LPS for 4 h, given about 3 days after siRNA transfection
Challenge: bacterial LPS (TLR4 ligand), 10 ng/ml
Measured: 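Ratio of firefly to renilla light, scaled to the plate median and expressed as a robust z-score per replicate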
Reading the numbers: TNF reporter robust z-score: higher = stronger TNF reporter response to LPS
Rule for the call: 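a well is active when its z-score exceeds 2.8 or falls below -1.5; control wells carry no call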

The first 5 records, to show the layout:
no.	gene knocked down	TNF reporter robust z-score	call
1	HMGN2P46	-0.07	inactive
2	HMGN2P46	0.12	inactive
3	HMGN2P46	-0.35	inactive
4	HMGN2P46	-0.36	inactive
5	IL12RB2	-0.56	inactive

Main list, from the first entry:
no.	gene knocked down	TNF reporter robust z-score	call
1	HMGN2P46	-0.07	inactive
2	HMGN2P46	0.12	inactive
3	HMGN2P46	-0.35	inactive
4	HMGN2P46	-0.36	inactive
5	IL12RB2	-0.56	inactive
6	IL12RB2	-0.49	inactive
7	IL12RB2	-0.74	inactive
8	IL12RB2	-1.41	inactive
9	WT1	-0.05	inactive
10	WT1	-0.09	inactive
11	WT1	0.03	inactive
12	WT1	0.61	inactive
13	CYP2R1	-0.74	inactive
14	CYP2R1	0.09	inactive
15	CYP2R1	-0.16	inactive
16	CYP2R1	-0.19	inactive
17	CCDC70	0.15	inactive
18	CCDC70	1.76	inactive
19	CCDC70	0.79	inactive
20	CCDC70	1.49	inactive
21	RNF44	0.31	inactive
22	RNF44	-0.23	inactive
23	RNF44	-1.8	active
24	RNF44	-0.65	inactive
25	CGN	-0.37	inactive
26	CGN	-0.25	inactive
27	CGN	-0.9	inactive
28	CGN	-0.33	inactive
29	PTPN18	-0.79	inactive
30	PTPN18	-0.43	inactive
31	PTPN18	1.06	inactive
32	PTPN18	0.12	inactive
33	RERE	-2.16	active
34	RERE	-1.96	active
35	RERE	-1.83	active
36	RERE	-1.43	inactive
37	CDH11	2.16	inactive
38	CDH11	1.89	inactive
39	CDH11	0.79	inactive
40	CDH11	0.8	inactive
41	PPP6R3	-0.71	inactive
42	PPP6R3	-0.79	inactive
43	PPP6R3	0.94	inactive
44	PPP6R3	2.01	inactive
45	UGT2B11	1.25	inactive
46	UGT2B11	0.58	inactive
47	UGT2B11	-0.35	inactive
48	UGT2B11	0.87	inactive
49	SERPINB10	-1.66	active
50	SERPINB10	-0.83	inactive
51	SERPINB10	-1.87	active
52	SERPINB10	-1.49	inactive
53	BLOC1S4	-0.07	inactive
54	BLOC1S4	-0.3	inactive
55	BLOC1S4	-0.28	inactive
56	BLOC1S4	-0.45	inactive
57	UNC5B	-0.75	inactive
58	UNC5B	0.67	inactive
59	UNC5B	-0.68	inactive
60	UNC5B	1.78	inactive
61	ZNF813	-0.23	inactive
62	ZNF813	-0.13	inactive
63	ZNF813	-0.91	inactive
64	ZNF813	-0.7	inactive
65	MARK1	-1.24	inactive
66	MARK1	-0.32	inactive
67	MARK1	-0.81	inactive
68	MARK1	-0.09	inactive
69	OR4S1	-0.67	inactive
70	OR4S1	2.28	inactive
71	OR4S1	-0.43	inactive
72	OR4S1	0.25	inactive
73	RBM15B	-0.64	inactive
74	RBM15B	-0.31	inactive
75	RBM15B	0.5	inactive
76	RBM15B	-0.35	inactive
